# According to US7700717B2 (DeveloGen Israel Ltd., priority 2002, dated 2010):
# Experiment: peptide synthesis
# Settings: whole synthesis
substance,measurement,value
5- and 6-carboxyfluorescein-Lys(GABA*-Phe-Trp-DTrp-Lys-Thr-Phe-GlyC3*)-NH2,final purity (method not given),98%
same,isolated yield,0.8%
